# Assay results taken from PubChem BioAssay AID1487 (National Center for Advancing Translational Sciences (NCATS), 2009).
# Some of the results follow. Shown are side measurements of this screen, not its main read-out; they come without a call. The list favours compounds with an active or inconclusive main result. Words in brackets tell the shape of the fitted curve; partial curves, single points and poor fits give uncertain potencies.
# Assay: qHTS Assay for Modulators of Lamin A Splicing
# Conditions: HeLa LMNA splicing GFP/RFP minigene ratio, 48 h
# Summary of the method: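 Read-out is the ratio of GFP to DsRed2 object intensity, acquired by 488 nm laser-scanning cytometry on HeLa lamin A-EGFP minigene reporter cells. Compound incubation 48 hrs at 37 °C in Opti-MEM with 2% FBS; DMSO 0.5% final.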
# [1] = measured here: GFP splicing reporter channel
# [2] = measured here: RFP viability control channel
SMILES,AC50 [1],AC50 [2]
CCN1CCN(CCCN(Cc2ccco2)C(=S)Nc2cccc(Cl)c2C)CC1,"15.8 µM [falling, partial curve]",
CC(/C=N/NC(=O)CN1CCN(Cc2ccc(Cl)cc2)CC1)=C\c1ccco1,"11.2 µM [rising, partial curve, poor fit]","8.91 µM [rising, partial curve]"
CN(c1ccccc1)c1nc(-n2ccnc2)nc(-n2ccnc2)n1,"0.282 µM [falling, full curve]",
O=C(Nc1cc(Cl)ccc1Oc1ccccc1)c1ccc(F)cc1,,"14.1 µM [rising, single point]"
COc1cccc(/C=N/N=C(\N)c2nonc2N)c1O,,"1.41 µM [rising, partial curve]"
CCc1nnc(NC(=O)Cc2cccs2)s1,"5.62 µM [rising, single point]","0.0562 µM [falling, full curve, poor fit]"
COc1ccc(C2C3=C(CC(C)(C)CC3=O)Nc3cc4c(cc32)OCO4)cc1 (centres undefined),,"31.6 µM [rising, single point]"
Cc1[nH]n(C(N)=S)c(=O)c1N=Nc1cc(-c2ccc(Br)cc2)[nH]n1,,"11.2 µM [rising, single point]"
COCCNC(=O)c1ccccc1NC(=O)CSc1ccc(C)cc1,"0.0224 µM [falling, full curve, poor fit]","0.0282 µM [falling, full curve]"
COc1ccc2nc(SCC(=O)N3CC(=O)Nc4ccccc43)c(C#N)cc2c1,"1.78 µM [falling, partial curve, poor fit]","5.62 µM [rising, single point]"
COc1ccc(-n2c(-c3ccccc3)cc3c2CCCC3=O)cc1,"35.5 µM [rising, single point]","31.6 µM [rising, single point]"
O=C(NCc1ccncc1)c1ccc(Oc2ccccc2)cc1,"12.6 µM [falling, partial curve]",
CCCN1CCN(c2ncnc3sc(C(=O)Nc4cccc(Cl)c4C)c(C)c23)CC1,,"5.01 µM [falling, partial curve, poor fit]"
COc1ccc(NC(=O)C(=O)NCC(c2cccnc2)N2CCc3ccccc3C2)cc1 (centres undefined),"28.2 µM [falling, partial curve, poor fit]",
O=C(CC1N=C2c3ccccc3N=C(SCc3ccccc3Cl)N2C1=O)NCc1cccs1 (centres undefined),"0.02 µM [falling, full curve, poor fit]","0.0631 µM [falling, partial curve]"
COc1ccccc1-c1c(C(F)(F)F)oc2cc(OC(=O)c3ccccc3[N+](=O)[O-])ccc2c1=O,"2.51 µM [falling, single point]","35.5 µM [falling, single point]"
Cc1nc(NS(=O)(=O)c2ccccc2)sc1C(=O)NN,,"10 µM [falling, partial curve, poor fit]"
CN1CCN(c2nc(-c3ccc4c(c3)OCO4)nc3ccccc23)CC1,"7.08 µM [falling, partial curve]",
O=C(Nc1cc(Cl)ccc1Cl)c1cc(S(=O)(=O)N2CCCc3ccccc32)ccc1F,,"14.1 µM [rising, single point]"

# As entered above.
# For AC50 [1], CN(c1ccccc1)c1nc(-n2ccnc2)nc(-n2ccnc2)n1 is entered as 0.282 µM [falling, full curve]
# For AC50 [2], O=C(Nc1cc(Cl)ccc1Oc1ccccc1)c1ccc(F)cc1 is entered as 14.1 µM [rising, single point]

# Continuation:

SMILES,AC50 [1],AC50 [2]
O=C(NCc1ccccc1)c1cc(S(=O)(=O)N2CCC3(CC2)OCCO3)ccc1F,"15.8 µM [rising, single point]","20 µM [rising, single point]"
CCN=c1scc(-c2ccccc2)n1/N=C/c1ccccn1,,"7.08 µM [rising, partial curve]"
CCCN(C(=O)c1sc2nc3n(c(=O)c2c1C)CCCC3)c1ccccc1C,,"20 µM [rising, partial curve, poor fit]"
O=C(CSc1nnc(-c2ccc(Br)cc2)o1)N1CCN(C(=O)c2ccco2)CC1,"12.6 µM [rising, partial curve]","20 µM [rising, single point]"
CCCNC(=O)C1CCC(Cn2c(=O)c3sccc3n(CC(=O)Nc3ccccc3C)c2=O)CC1 (centres undefined),,"0.501 µM [falling, full curve, poor fit]"
CCOc1ccc2[nH]c(=O)c(CN(Cc3ccco3)C(=O)c3cccc(F)c3)cc2c1,"0.0158 µM [rising, full curve]","14.1 µM [rising, partial curve, poor fit]"
CC(C)c1cc(C(N)=O)c(NC(=O)c2cccc(COc3ccc(Br)cc3)c2)s1,"17.8 µM [rising, single point]","35.5 µM [rising, single point]"
CCOC(=O)c1c(NC(=O)COc2ncnc3ccccc23)sc(C)c1CC,"7.08 µM [rising, partial curve]","17.8 µM [rising, partial curve]"
CCCn1c(NCc2ccco2)nc2c1c(=O)n(C)c(=O)n2C,,"31.6 µM [rising, single point]"
Cc1oc(-c2cccc(C(F)(F)F)c2)nc1CN1CCOCC1,,"0.251 µM [falling, partial curve]"
CCc1ccc(Nc2cc(C(=O)NCCCN(C)c3ccccc3)c3ccccc3n2)cc1,"35.5 µM [falling, single point]","35.5 µM [falling, partial curve, poor fit]"
CCOc1ccc(CCNC(=O)c2sc3ncccc3c2-n2c(C)ccc2C)cc1,,"3.16 µM [rising, partial curve, poor fit]"
Cc1cc(=O)n(CC(=O)Nc2cccc([N+](=O)[O-])c2)c(-n2nc(C)cc2C)n1,,"0.355 µM [falling, full curve]"
COc1ccc(-c2noc(C3CCCN(S(=O)(=O)c4ccc(C)c(Cl)c4)C3)n2)cc1OC (centres undefined),,"15.8 µM [rising, partial curve]"
CCc1ccc(C(=O)CSc2n[nH]c(-c3ccncc3)n2)cc1,,"31.6 µM [rising, single point]"
CN(C)c1cccc(C(=O)N2CCC(c3ccncc3)CC2)c1,,"35.5 µM [rising, single point]"
COc1cc(CNc2ccc3[nH]c(=O)[nH]c3c2)cc(Br)c1OCc1ccc(F)cc1,"20 µM [falling, partial curve, poor fit]","35.5 µM [falling, single point]"
COc1ccccc1CNC(=O)c1cc2cc(C)ccc2n1C,,"10 µM [rising, partial curve, poor fit]"
Cc1ccc(S(=O)(=O)NCc2ccc(C(=O)N3CCN(Cc4ccccc4)CC3)cc2)cc1,,"10 µM [rising, partial curve]"

SMILES,AC50 [1],AC50 [2]
Cc1ccc(Sc2c(C#N)c(-c3ccccc3)nn2C)cc1,,"31.6 µM [rising, single point]"
O=S(=O)(Nc1cc(C(F)(F)F)ccc1N1CCOCC1)c1ccc2ccccc2c1,"14.1 µM [rising, partial curve]",
CN(C)c1cccc2c1c(NC(=O)Nc1ccccc1)nn2C,,"7.08 µM [falling, partial curve, poor fit]"
CN(C)c1ccc(/C=C(\C#N)c2ccccn2)cc1,,"35.5 µM [rising, single point]"
O=C(CCN1CCCC1Cc1ccccc1)c1ccc2c(c1)OCCO2 (centres undefined),,"14.1 µM [falling, partial curve, poor fit]"
Cc1ccc(S(=O)(=O)N2CCOCC2)cc1C(=O)Nc1ccc(-c2cn3ccsc3n2)cc1,,"17.8 µM [rising, partial curve]"
Cc1ccn2c(C(=O)CSc3ccc(Cl)cc3Cl)c(C)nc2c1,"0.631 µM [rising, full curve, poor fit]",
O=C(c1ccc2ccccc2c1)N1CCN(c2ccc(O)cc2)CC1,"6.31 µM [falling, partial curve]",
COc1ccc(/C=C/C(=O)c2ccc(NS(=O)(=O)c3ccc(C)cc3)cc2)cc1O,"35.5 µM [falling, single point]","35.5 µM [falling, single point]"
O=C(c1ccc(Cn2c(=O)[nH]c3ccccc3c2=O)cc1)N1CCN(c2ccccc2)CC1,"12.6 µM [rising, partial curve, poor fit]","20 µM [rising, partial curve]"
Cn1c(=O)n(CCc2ccccc2)c(=O)c2c1nc1n2CCCN1CCc1ccccc1,"35.5 µM [falling, single point]","35.5 µM [falling, single point]"
CCS(=O)(=O)N1Cc2ccccc2CC1C(=O)Nc1nc2c(C)cccc2s1 (centres undefined),,"35.5 µM [rising, single point]"
c1cnn(-c2nc(N3CCOCC3)nc(N3CCOCC3)n2)c1,,"11.2 µM [rising, partial curve]"
COc1ccc(OC)c(C(=O)CSc2nnc(-c3cccnc3)n2C)c1,"5.01 µM [rising, partial curve, poor fit]",
COc1cccc(N(C(=O)CS(=O)CC(=O)Nc2ccc(F)cc2)C(C(=O)NC2CCCCC2)c2cccs2)c1 (centres undefined),"0.00316 µM [falling, full curve, poor fit]",
CN(c1ccccc1)S(=O)(=O)c1ccc(NC(=S)NC(=O)C2CC2)cc1,,"17.8 µM [rising, partial curve]"
O=C(O)/C=C/C(=O)Nc1ccc(SC(F)(F)C(F)(F)C(F)(F)F)cc1,,"0.708 µM [rising, full curve]"
COc1cccc(N/C(SCc2cccc([N+](=O)[O-])c2)=C(/C#N)C(=O)NCc2cccs2)c1,"10 µM [rising, partial curve, poor fit]","10 µM [rising, partial curve, poor fit]"
